Assay results taken from PubChem BioAssay AID1471 (National Center for Advancing Translational Sciences (NCATS), 2008).
In all, about 230,000 compounds went through this assay and about 310 (0.13%) were called active. This list was built around the results that the source calls inconclusive (neither active nor inactive); the mix of calls is not that of the screen. The call rests on the fitted dose curve; in most records, active means well fitted activation curve with a large enough effect; inconclusive means small, poorly fitted or top-dose-only effect; inactive means no such curve, though single readings can be large or run the other way. Potencies beside an inconclusive call are fits to weak or partial responses and may not hold up.

Experiment: qHTS Multiplex Assay to Identify Dual Action Probes in a Cell Model of Huntington: Cytoprotection (ATP); further: nearly all actives have a fitted effect of over 45% in size;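 on cytoprotection (ATP increase): toxic huntingtin expression switched on by the ecdysone agonist tebufenozide; % of control where 0% means no effect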
Settings: PC12 HTT-Q103 induced, ATP luminescence, 40 h; cytoprotection (ATP increase): at 56.4 µM (top of the series) unless noted
Outline: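 PC12 cells with ecdysone-inducible HTT exon 1 Q103-GFP, induced with 100 nM tebufenozide and co-treated with library compounds in a dose series (1536-well, 1500 cells/well). Cytoprotection read as ATP content by ATPlite luminescence.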
Potency means the concentration at half of the fitted maximal effect.

| Compound | Potency | cytoprotection (ATP increase) |
| --- | --- | --- |
| COc1ccc(C(=O)NCC(=O)OCn2nnc3ccccc3c2=O)cc1OC | inconclusive: 0.316 µM [activator, partial curve] |  |
| COc1ccc(C#CC2C=CC(OC(C)=O)C(COC(C)=O)O2)cc1 (stereo not given) | inconclusive: 0.0708 µM [activator, full curve, poor fit] |  |
| COc1ccccc1NC(=O)/C=C1\NC(=O)CS1 | inconclusive: 0.447 µM [activator, full curve, poor fit] |  |
| Cc1cc(Cl)nc(Cl)c1C(=O)NC(=O)NCCC(C)C | inactive |  |
| O=C(NC[C@@H]1CCCCN1)c1cc(OCC(F)(F)F)ccc1OCC(F)(F)F | inconclusive: 0.178 µM [activator, full curve] |  |
| CC(=O)Nc1ccc(NS(C)(=O)=O)cc1 | inconclusive: 0.891 µM [activator, single point] |  |
| CO[C@@H]1[C@@H](OC2OC(C)C(OC3CC(C)(O)C(OC(=O)CC(C)C)C(C)O3)C(N(C)C)C2O)[C@@H](CC=O)C[C@@H](C)C(=O)/C=C\C2O[C@H]2C[C@@H](C)OC(=O)C[C@H]1OC(C)=O (stereo not given in full) | inconclusive: 31.6 µM [activator, partial curve, poor fit] |  |
| O=C(N/N=C/c1cc(Cl)cc([N+](=O)[O-])c1O)C1CC1 |  | inactive: 19.9% [at 10 µM] |
| COC(=O)C(C)Sc1ccc2nnc(-c3ccc(F)cc3)n2n1 (stereo not given) | inconclusive: 3.16 µM [activator, partial curve, poor fit] |  |
| COC(=O)c1cc(NC(=O)c2ccc(C)cc2)c(=O)oc1C | inconclusive: 3.16 µM [activator, single point] |  |
| COc1cccc(-c2cc(C(F)(F)F)nc(-n3cc(Cl)cn3)n2)c1 | inconclusive: 0.562 µM [activator, full curve, poor fit] |  |
| Cc1cccc(NC(=S)NC2CC3CCCC(C2)N3Cc2cccs2)c1 (stereo not given) | inconclusive: 1.26 µM [activator, single point] |  |
| COC/C=C/C1=CC2=CC(=O)C(C)(OC(=O)c3cnc4ccccc4n3)C(=O)C2=CN1C1CCCC1 (stereo not given) | inconclusive: 1.58 µM [activator, partial curve] |  |
| S=C(NCC1CC1)N/N=C/c1ccccc1Cl | inconclusive: 3.98 µM [activator, partial curve] |  |
| c1cc(-c2nnc3n2CCCCC3)ccn1 | inactive |  |
| COc1ccc(NS(=O)(=O)c2cc(NC(=O)/C=C/c3cccs3)ccc2N2CCOCC2)cc1 |  | inactive: 4.5% [at 1.9 µM] |
| COC(=O)CCC(=O)OC1(C)C(=O)C=C2C=C(C3CC3)N(c3ccccc3)C=C2C1=O (stereo not given) | inconclusive: 0.631 µM [activator, single point] |  |
| CCN(CC)CCC(=O)N1c2ccccc2Sc2ccc(Cl)cc21 | inconclusive: 7.94 µM [activator, partial curve, poor fit] |  |
| Cc1ccc(C(=O)NN2CC(O)=C(c3nc(-c4cccc([N+](=O)[O-])c4)cs3)C2=N)cc1 | inconclusive: 1.12 µM [activator, full curve, poor fit] |  |
| Cc1ccc(S(=O)(=O)Oc2ccc(/C=C3/N=C(c4ccccc4)OC3=O)cc2)cc1 | inconclusive: 2.51 µM [activator, partial curve] |  |

| Compound | Potency | cytoprotection (ATP increase) |
| --- | --- | --- |
| CCc1ccc(C(=O)/C=C/c2cnn(C)c2C)s1 |  | inactive: -1.5% [at 10 µM] |
| C[C@@H]1CCC[C@H](C)N1NC(=O)c1ccc(Cl)c(S(N)(=O)=O)c1 | inconclusive: 14.1 µM [activator, single point] |  |
| O=C(Cn1c(SCC(=O)N2CCc3ccccc3C2)nc2ccccc21)NC1CCCC1 | inconclusive: 3.55 µM [activator, single point] |  |
| COc1cccc(OC)c1OCc1cc(C2C3CCCC=C3C(C#N)=C(N)C2(C#N)C#N)c(C)cc1C (stereo not given) | inconclusive: 22.4 µM [activator, single point] |  |
| O=C(NCc1ccco1)c1nc2nc(-c3cccs3)cc(C(F)(F)F)n2n1 | inactive |  |
| O=C(Nc1ccon1)c1ccc(N2CCCCC2)c([N+](=O)[O-])c1 | inconclusive: 0.0891 µM [activator, partial curve, poor fit] |  |
| NS(=O)(=O)c1ccc(NC(=O)CSc2ncnc3ccccc23)cc1 | active: 8.91 µM |  |
| NC(=O)NC(=O)COC(=O)c1ccc(OC(F)F)cc1 | inconclusive: 35.5 µM [activator, single point] |  |
| CCCCCCCCCCOC(=O)c1csc2nnsc12 | inconclusive: 2.51 µM [activator, single point] |  |
| O=C(COC(=O)c1ccc(Br)cc1)NCCc1ccccc1 | inconclusive: 5.01 µM [activator, single point] |  |
| O=C(O)c1ccc2c(c1)ncn2C1CCCCC1 |  | inactive: 0.432% [at 10 µM] |
| CCCCNC(=O)C(=O)N/N=C/c1cccc(Br)c1 | inconclusive: 5.01 µM [activator, partial curve, poor fit] |  |
| Fc1ccc(C2=NNC(=NCc3ccccc3)SC2)cc1F | inconclusive: 0.891 µM [activator, single point] |  |
| CC(=O)c1ccc(N2CCN(C(=O)c3ccc4c(=O)n(-c5ccccc5)c(=O)[nH]c4c3)CC2)cc1 |  | inactive: -11.7% [at 10 µM] |
| CCN(CC(=O)Nc1ccccc1OC)C(=O)COc1ccc2ccccc2c1 | inconclusive: 5.62 µM [activator, single point] |  |
| O=C(O)c1ccc[n+]([O-])c1 | inconclusive: 7.08 µM [activator, partial curve, poor fit] |  |
| COc1ccc2c3c1O[C@H]1C[C@H](O)C=C[C@@]31CCN(C)C2 | inconclusive: 39.8 µM [activator, partial curve] |  |
| O=C(O)C1(O)C[C@H](O)C(O)[C@@H](O)C1 (stereo not given in full) | inconclusive: 1.78 µM [activator, partial curve, poor fit] |  |
| CCOC(=O)c1c[nH][nH]c1=O |  | inactive: 0.543% [at 10 µM] |
| Cc1ccsc1/C=N/NC(=O)c1cccs1 | inconclusive: 5.62 µM [activator, single point] |  |

Of the compounds above, 2 contain an NH in an aromatic ring.

| Compound | Potency | cytoprotection (ATP increase) |
| --- | --- | --- |
| CC(=O)c1ccc(N2CCN(C(=O)c3ccc4c(=O)n(-c5ccccc5)c(=O)[nH]c4c3)CC2)cc1 |  | inactive: -11.7% [at 10 µM] |
| CCOC(=O)c1c[nH][nH]c1=O |  | inactive: 0.543% [at 10 µM] |
